Reference: doi:10.1101/2022.10.19.512833 (bioRxiv, 2022)
Results are given in words; binding and its absence hold for the method and conditions named. In cells and extracts the contact can be indirect. Here binding means that the protein was enriched with, or labelled near, the bait; the list need not be complete.

Molecular target: GAG_(449-464) (HIV-1) biotinylated peptide, double repeat (Human immunodeficiency virus type 1 (HIV-1)) (UniProt P04591)
Experiment: affinity purification with mass spectrometry

Substance: VPS28 (from UniProt Q9UK41 1-221)
- binding: binds

Substance: MVB12A (from UniProt Q96EY5 1-273)
- binding: binds

Substance: VPS37C (from UniProt A5D8V6 1-355)
- binding: binds
